# Assay results taken from PubChem BioAssay AID540256 (National Center for Advancing Translational Sciences (NCATS), 2011).
# Screen size: about 300,000 compounds; about 3,700 (1.2%) were called active. The shares of active, inactive and inconclusive entries below differ from those in the screen. The call rests on the fitted dose curve; tested in HEK293 cells. Potencies of inconclusive entries are doubtful fits and often do not repeat.
# Assay: qHTS for Inhibitors of binding or entry into cells for Lassa Virus; further: nearly all actives have a fitted effect of over 50% in size
# Conditions: Lassa virus pseudotype entry inhibition, cell reporter; activity change, negative = inhibition: at 37.9 µM (top of the series) unless noted
# On the % scale 0 is the no-effect control and ±100 the full control effect; potency means the concentration at half of the fitted maximal effect.
Compound,Potency,"activity change, negative = inhibition"
Cc1nnc(SCc2nnc(-c3cccs3)o2)s1,"inconclusive: 0.112 µM [inhibitor, full curve, poor fit]",
O=C(CN1C(=O)CC(c2ccccc2)=Nc2ccccc21)Nc1ccc(Br)cc1,,inactive: -15.9% [at 46.1 µM]
CCC(C)n1c(SCc2ccccc2)nc2ccsc2c1=O (stereo not drawn),"inconclusive: 1.3 µM [inhibitor, full curve, poor fit]",
CCc1ccc(C(=O)NCC2COc3ccccc3O2)o1 (stereo not drawn),,inactive: -0.154%
O=C(O)c1ccc(N/N=C/c2cccc(F)c2)cc1,"inconclusive: 8.91 µM [inhibitor, partial curve, poor fit]",
CCCNc1ncc2c(=O)[nH][nH]c(=O)c2n1,,inactive: 11.8% [at 46.1 µM]
Cc1nc2ccccc2c(=O)n1-c1ccc([N+](=O)[O-])cc1,"inconclusive: 35.5 µM [activator, single point]",
CCOc1ccccc1NC(=O)CN1CCCCCC1,,inactive: 6.28%
COc1ccccc1CCNC(=O)CSc1ccc(-c2cccs2)nn1,,inactive: -3.52%
Cn1ncc2c(Nc3cccc(C(=O)O)c3)ncnc21,"inconclusive: 1.3 µM [activator, full curve, poor fit]",
C=C1C(=O)O[C@H]2[C@H]1[C@@H](O)CC(=C)[C@@H]1CC(=O)[C@@H](C)[C@H]21,"inconclusive: 12.6 µM [inhibitor, single point]",
CCc1ccc(C2CC(c3ccc(Cl)cc3)=NNC2=O)cc1 (stereo not drawn),"inconclusive: 10 µM [inhibitor, partial curve]",
Cc1cccc(NC(=O)CCSc2ccccn2)c1,"inconclusive: 11.2 µM [activator, single point]",
Cc1ccc(N(CN2CCCC2=O)C(=O)c2ccc(OC(C)C)cc2)cc1,"inconclusive: 8.2 µM [inhibitor, partial curve]",
COc1cc(C(=O)NCCc2csc(-c3ccc(Cl)cc3)n2)cc(OC)c1OC,"inconclusive: 10 µM [inhibitor, partial curve]",
COc1ccc(N2CCN(C(=O)c3cccc(NC(=O)c4ccco4)c3)CC2)cc1,"inconclusive: 35.5 µM [inhibitor, single point]",
COc1ccc(-c2noc(CSc3nnc(C)n3-c3cccc(C)c3)n2)cc1,"inconclusive: 0.562 µM [inhibitor, full curve, poor fit]",
O=C(c1cccc(S(=O)(=O)N2CCCc3ccccc32)c1)N1CCN(c2ccccc2)CC1,"inconclusive: 35.5 µM [inhibitor, single point]",
O=C(O)c1ccc(N/N=C/c2cn(-c3ccccc3)nc2-c2cccs2)cc1,active: 5.01 µM,
COCC(C)N1CC(O)=C(c2nc(-c3ccc(Cl)cc3)cs2)C1=N (stereo not drawn),"inconclusive: 2.82 µM [inhibitor, full curve]",
N=C1S/C(=C\c2ccco2)C(=O)N1c1ccc2c(c1)OCO2,,inactive: -45.5% [at 46.1 µM]
CCOC(=O)c1c(NC(=O)CSc2cn(CCNC(=O)c3ccc(OC)cc3)c3ccccc23)sc2c1CCCC2,,inactive: -1.36% [at 46.1 µM]
CCCc1nc(NC2CCCCC2)c(C#N)c2c1COC(C)(C)C2,"inconclusive: 18.3 µM [inhibitor, single point]",

Compound,Potency,"activity change, negative = inhibition"
CCc1ccc(/C=C/C(=O)c2c(C)cc(C)[nH]c2=O)cc1,"inconclusive: 11.2 µM [inhibitor, partial curve, poor fit]",
O=C(NCc1ccco1)c1ccc(F)c(S(=O)(=O)N2CCCCC2)c1,"inconclusive: 10 µM [inhibitor, partial curve, poor fit]",
Cc1cccc(Nc2nc(N)c([N+](=O)[O-])c(N3CCCC(C)C3)n2)c1 (stereo not drawn),"inconclusive: 25.9 µM [inhibitor, single point]",
Fc1cccc(NC(=S)NCc2ccccc2Cl)c1,"inconclusive: 7.08 µM [inhibitor, full curve, poor fit]",
CCN(CC(=O)Nc1ccc(NC(C)=O)cc1)C(=O)/C=C/c1cn(-c2ccccc2)nc1-c1cccs1,"inconclusive: 7.94 µM [inhibitor, partial curve]",
O=C(Nc1ccc2c(c1)OCCO2)c1cc2ccccc2o1,active: 7.94 µM,
CCNC(=S)N/N=C/c1cccc(C)c1,"inconclusive: 29.1 µM [inhibitor, single point]",
COc1ccccc1CCC(=O)N(C)CC(=O)Nc1ccc(Cl)c(C(F)(F)F)c1,"inconclusive: 17.8 µM [inhibitor, partial curve, poor fit]",
O=C(Nc1ccc(OC(F)(F)F)cc1)Nc1cccc([N+](=O)[O-])c1,"inconclusive: 12.6 µM [inhibitor, partial curve, poor fit]",
Cc1nc2cc(NC(=O)Nc3nccs3)ccc2n1C,active: 13 µM,
Cc1cn2c(=O)c(S(=O)(=O)Nc3ccc(F)cc3F)c(C)nc2s1,,inactive: -16.7% [at 46.1 µM]
C#CCN1c2ccccc2Sc2cccnc21,,inactive: 13.3%
Clc1ccc(-c2csc(N/N=C/c3cccnc3)n2)c(Cl)c1,active: 7.31 µM,
Cc1cc(C)cc(C(=O)NCC(c2ccc(N(C)C)cc2)N2CCCC2)c1 (stereo not drawn),"inconclusive: 35.5 µM [inhibitor, partial curve, poor fit]",
CN(Cc1ccccc1)c1ccc(-c2nc(-c3ccncc3)no2)cc1[N+](=O)[O-],,inactive: 13.8% [at 46.1 µM]
CCCCCn1nc(C)c(/C=N/NC(=O)c2ccoc2C)c1C,,inactive: -37.5%
Cc1noc2ncnc(Sc3ccc(Br)cc3)c12,"inconclusive: 25.1 µM [inhibitor, single point]",
Cc1nc2sc(-c3ccccc3)cc2c(=O)[nH]1,"inconclusive: 8.2 µM [inhibitor, partial curve, poor fit]",
CCN(CC)C(=O)Nc1ccc(C(=O)OC)cc1,,inactive: 29.8%
CC(C)C(=O)Nc1ccc(-c2nnc(-c3ccccc3)o2)cc1,"inconclusive: 5.62 µM [inhibitor, full curve, poor fit]",
COc1ccc(Cl)cc1NC(=O)CN(C)Cc1ccc(OC)c(OC)c1,"inconclusive: 1.78 µM [inhibitor, full curve]",
COc1ccc(NC(=O)/C(C#N)=C/c2c(C)nn(-c3ccc(F)cc3)c2Cl)cc1Cl,,inactive: -6.79%
CCN(c1ccccc1)S(=O)(=O)c1ccc(OCc2c(C)noc2C)cc1,"inconclusive: 35.5 µM [inhibitor, single point]",

Compound,Potency,"activity change, negative = inhibition"
Cc1cc(OCC(=O)NCc2ccc(S(N)(=O)=O)cc2)c2c3c(c(=O)oc2c1)CCC3,"inconclusive: 25.1 µM [activator, partial curve, poor fit]",
O=C(c1cc(-c2ccncc2)nc2ccccc12)N1CCN(Cc2ccccc2)CC1,"inconclusive: 0.708 µM [inhibitor, partial curve, poor fit]",
Cc1cccc(NC(=O)CN2CCCN(S(=O)(=O)c3ccc(Br)s3)CC2)c1,"inconclusive: 35.5 µM [inhibitor, single point]",
COc1ccccc1CN(Cc1cc2cc(C)ccc2[nH]c1=O)Cc1nnnn1CC1CCCO1 (stereo not drawn),,inactive: -23%
CC1=C(C(=O)N2CCOCC2)C(c2ccc(OC(F)F)cc2)NC(=S)N1c1ccccc1 (stereo not drawn),"inconclusive: 0.1 µM [activator, full curve, poor fit]",
Cc1nc(-c2ccccc2)sc1C(=O)/C=C/c1ccccc1,"inconclusive: 14.1 µM [inhibitor, single point]",
Cc1ccc(N(CCC#N)C(=O)COC(=O)c2ccccn2)cc1,"inconclusive: 31.6 µM [activator, single point]",
CCOc1ccc(NC(=S)NC(=O)/C=C/c2ccc(Br)cc2)c([N+](=O)[O-])c1,active: 20.6 µM,
COc1ccc(-c2[nH]ncc2CN(Cc2nccn2C)C(C)C)c(F)c1,"inconclusive: 22.4 µM [activator, single point]",
CCOc1ccc(N2C(=O)c3[nH]nc(-c4ccc(OC)cc4)c3C2c2cccs2)cc1 (stereo not drawn),"inconclusive: 11.2 µM [inhibitor, partial curve, poor fit]",
CCOc1ccc2nc(SCC(=O)NC(=O)NCc3ccco3)sc2c1,"inconclusive: 28.2 µM [inhibitor, single point]",
CCN(CC)C(=O)Oc1nnc(SC(C)C)n1-c1ccc(Cl)c(Cl)c1,"inconclusive: 11.2 µM [inhibitor, partial curve, poor fit]",
COCCCNC(=O)c1ccc2c3c(onc13)-c1ccccc1C2=O,"inconclusive: 35.5 µM [inhibitor, single point]",
COc1cccc(NC(=O)CSc2nc3ccccc3c(=O)n2Cc2cccs2)c1,,inactive: -12.5%
O=C(NN=Cc1ccc(N(CCCl)CCCl)cc1)C(=O)c1c[nH]c2ccccc12,active: 6.31 µM,
COc1ccc(S(=O)(=O)N2CCN(Cc3nc4ccc(C)cc4o3)CC2)cc1,"inconclusive: 15.8 µM [activator, partial curve, poor fit]",
O=C(c1ccc(=O)n(Cc2ccccc2)n1)N1CCN(C/C=C/c2ccccc2)CC1,"inconclusive: 0.231 µM [activator, single point]",
Cc1ccc(-c2nc(N)n(S(=O)(=O)c3ccc(C)cc3)n2)cc1,"inconclusive: 1.26 µM [inhibitor, single point]",
Oc1ccccc1Nc1nc2ccccc2n2nnnc12,"inconclusive: 3.16 µM [activator, single point]",
COc1ccc(-c2[nH]ncc2-c2ccc3c(c2)OCCO3)c(O)c1,"inconclusive: 35.5 µM [inhibitor, single point]",
CCn1ncc(Br)c1C(=O)Nc1ccc(C(=O)OC(C)C)cc1,"inconclusive: 5.62 µM [activator, single point]",
COc1cccc(C(=O)NC(C)c2ccc(-c3ccccc3)cc2)c1OC (stereo not drawn),"inconclusive: 35.5 µM [inhibitor, single point]",

# Reformatted bar-delimited: 16 of the compounds above
Compound | Potency | activity change, negative = inhibition
Cn1ncc2c(Nc3cccc(C(=O)O)c3)ncnc21 | inconclusive: 1.3 µM [activator, full curve, poor fit] | 
CCc1ccc(C2CC(c3ccc(Cl)cc3)=NNC2=O)cc1 (stereo not drawn) | inconclusive: 10 µM [inhibitor, partial curve] | 
COc1cc(C(=O)NCCc2csc(-c3ccc(Cl)cc3)n2)cc(OC)c1OC | inconclusive: 10 µM [inhibitor, partial curve] | 
N=C1S/C(=C\c2ccco2)C(=O)N1c1ccc2c(c1)OCO2 |  | inactive: -45.5% [at 46.1 µM]
CCN(CC(=O)Nc1ccc(NC(C)=O)cc1)C(=O)/C=C/c1cn(-c2ccccc2)nc1-c1cccs1 | inconclusive: 7.94 µM [inhibitor, partial curve] | 
O=C(Nc1ccc(OC(F)(F)F)cc1)Nc1cccc([N+](=O)[O-])c1 | inconclusive: 12.6 µM [inhibitor, partial curve, poor fit] | 
COc1ccc(Cl)cc1NC(=O)CN(C)Cc1ccc(OC)c(OC)c1 | inconclusive: 1.78 µM [inhibitor, full curve] | 
O=C(c1cc(-c2ccncc2)nc2ccccc12)N1CCN(Cc2ccccc2)CC1 | inconclusive: 0.708 µM [inhibitor, partial curve, poor fit] | 
Cc1cccc(NC(=O)CN2CCCN(S(=O)(=O)c3ccc(Br)s3)CC2)c1 | inconclusive: 35.5 µM [inhibitor, single point] | 
CC1=C(C(=O)N2CCOCC2)C(c2ccc(OC(F)F)cc2)NC(=S)N1c1ccccc1 (stereo not drawn) | inconclusive: 0.1 µM [activator, full curve, poor fit] | 
CCOc1ccc(NC(=S)NC(=O)/C=C/c2ccc(Br)cc2)c([N+](=O)[O-])c1 | active: 20.6 µM | 
CCOc1ccc2nc(SCC(=O)NC(=O)NCc3ccco3)sc2c1 | inconclusive: 28.2 µM [inhibitor, single point] | 
COc1cccc(NC(=O)CSc2nc3ccccc3c(=O)n2Cc2cccs2)c1 |  | inactive: -12.5%
O=C(NN=Cc1ccc(N(CCCl)CCCl)cc1)C(=O)c1c[nH]c2ccccc12 | active: 6.31 µM | 
CCn1ncc(Br)c1C(=O)Nc1ccc(C(=O)OC(C)C)cc1 | inconclusive: 5.62 µM [activator, single point] | 
COc1cccc(C(=O)NC(C)c2ccc(-c3ccccc3)cc2)c1OC (stereo not drawn) | inconclusive: 35.5 µM [inhibitor, single point] | 
